In one assay the target is T1, Yhb1-Cherry (S. pombe) (UniProt Q9URY5).
T1 sequence: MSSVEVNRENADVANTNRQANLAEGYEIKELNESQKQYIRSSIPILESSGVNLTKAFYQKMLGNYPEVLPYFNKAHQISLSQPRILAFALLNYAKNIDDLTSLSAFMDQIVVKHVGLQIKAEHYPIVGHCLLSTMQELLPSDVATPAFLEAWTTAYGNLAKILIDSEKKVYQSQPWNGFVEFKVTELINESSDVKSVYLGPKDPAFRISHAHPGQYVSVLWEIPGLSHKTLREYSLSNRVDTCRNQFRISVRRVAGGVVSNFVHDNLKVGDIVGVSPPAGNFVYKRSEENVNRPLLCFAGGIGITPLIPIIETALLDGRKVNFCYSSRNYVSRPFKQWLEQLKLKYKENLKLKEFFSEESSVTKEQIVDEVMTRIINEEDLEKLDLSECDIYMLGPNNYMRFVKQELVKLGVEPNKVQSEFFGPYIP
Briefly: co-IP.

In another assay the target is T2, Yhb1-VN (S. pombe) (UniProt Q9URY5).
T2 sequence: T1 sequence
Briefly: split reporter.

Results are given in words; binding and its absence hold for the method and conditions named. Binding seen in cells or lysates may run through a third protein. Some binding calls cover weakened binding; strength is not graded here. For some assays here: Tags and fused reporters may be left off the sequences shown.

B1: Str3-GFP (protein, UniProt Q92341 1-630)
chain: MEAKETHSISDHEVELQDAKPEEKSENGNFVFEKAFSSDEEKGSGYNTNETYSKMDNSLQHRGVSKIEAVRDSIYQNKRGMYLAYAFGIAILACSWASAIQSSTTYSYQVYATASFNRTSMISTLEIATAIISSVCKPILGKFSDITSRPMTYTLVLLFYVIGFIVVASSSTISAYVIGSVFISIGSSGLDYLNTLVVGDLTSLKWRGFMTALLSTPYIATVWFTGFIVQGIIDSNWRWGYGMFAIIMPAVMTPAVIILMYLERQANKDENIKKIINYQTEEKNKNKQSKWQKLWKAVLEVDLFGLILLGVGWSILLLPFSLTSYAKNGWKNPSMIAMMVVGGVILIAYSGYEMFIAPYPSCPRRVMNRTFITAVIIDFFYYLAGYLQSMYFTTYTWILYDWSYRDWTYFNNTMTIALCVFGVFAGAMHRVFHRYKYLQIIGLVIKIVGYGILIRPNFAATGKVDLAWSLILIGMGGSFSVVGSQVSCQASVPHQDLAIASSLLPLYTNIGGAIGAAIASPIFSNKVPKYLREYLPSSINDTQVYNFYSDSSLIREYPVGTEIRDGAIKAYSRSMFFLLVPAVSLSFIPLAAAFWQSNFYLGNQQNAVEGDQDHKKKGDKETTQEEKIII
For the molecule B1, in the assay with Yhb1-Cherry (S. pombe), the binding result is given as “binds”.

B2: Str3-VC (protein, UniProt Q92341 1-630)
chain: B1 chain
For B2, in the assay with Yhb1-VN (S. pombe), the binding entry is listed as “binds”.

For the origin of these results see publication doi:10.1101/2024.03.03.583214.
